In patent publication US20150368236A1, “2-(PYRIDIN-3-YL)-5-HETARYL-THIAZOLE COMPOUNDS CARRYING AN IMINE OR IMINE-DERIVED SUBSTITUENT FOR COMBATING INVERTEBRATE PESTS” (BASF SE, priority 2012, published 2015):
Some entries share one result that the patent states for a list of compounds.

Assays:
Type in all cases: in vivo
[1] = test system: green peach aphid (Myzus persicae); details: 800 ppm; in aphid diet under artificial membrane; adult aphids; 3 days
Description: For evaluating control of green peach aphid (Myzus persicae) through systemic means the test unit consisted of 96-well-microtiter plates containing liquid artificial diet under an artificial membrane.
The compounds were formulated using a solution containing 75% v/v water and 25% v/v DMSO. Different concentrations of formulated compounds were pipetted into the aphid diet, using a custom built pipetter, at two replications.
After application, 5 to 8 adult aphids were placed on the artificial membrane inside the microtiter plate wells. The aphids were then allowed to suck on the treated aphid diet and were incubated at about 23±1° C. and about 50±5% relative humidity for 3 days. Aphid mortality and fecundity was then visually assessed.

[2] = test system: vetch aphid (Megoura viciae); details: 800 ppm; sprayed broad bean leaf disks; adult aphids; 5 days
Method: For evaluating control of vetch aphid (Megoura viciae) through contact or systemic means the test unit consisted of 24-well-microtiter plates containing broad bean leaf disks.
The compounds were formulated using a solution containing 75% v/v water and 25% v/v DMSO. Different concentrations of formulated compounds were sprayed onto the leaf disks at 2.5 μl, using a custom built micro atomizer, at two replications.
After application, the leaf disks were air-dried and 5 to 8 adult aphids were placed on the leaf disks inside the microtiter plate wells. The aphids were then allowed to suck on the treated leaf disks and were incubated at about 23±1° C. and about 50±5% relative humidity for 5 days. Aphid mortality and fecundity were then visually assessed.

[3] = test system: Cowpea Aphid (Aphis craccivora); details: 300 ppm; colonized cowpea plants sprayed; population reduction assessed after 24, 72 and 120 hours
Method: The active compound was dissolved at the desired concentration in a mixture of 1:1 (vol:vol) distilled water:acetone. The test solution was prepared at the day of use. Potted cowpea plants colonized with approximately 100 to 150 aphids of various stages were sprayed after the pest population had been recorded. Population reduction was assessed after 24, 72, and 120 hours.

Compound | mortality in comparison with untreated controls [1] | mortality in comparison with untreated controls [2] | mortality in comparison with untreated controls [3]
C(=NN1CCCCC1)c1cccc(-c2cnc(-c3cccnc3)s2)n1 [Compound 3-53] | at least 75% | at least 75% | at least 75%
CON=Cc1cccnc1-c1cnc(-c2cccnc2)s1 [Compound 6-2] | at least 75% | at least 75% | at least 75%
Cc1cc(C)cc(NN=Cc2cccc(-c3cnc(-c4cccnc4)s3)n2)c1 [Compound 3-17] | – | at least 75% | at least 75%
C(=NNC1=NCCN1)c1cccc(-c2cnc(-c3cccnc3)s2)n1 [Compound 3-24] | – | – | at least 75%
CON=Cc1ccc(-c2cnc(-c3cccnc3)s2)nc1 [Compound 4-3] | – | at least 75% | at least 75%
CC(=O)NN=Cc1cccc(-c2cnc(-c3cccnc3)s2)n1 [Compound 1-14] | – | at least 75% | at least 75%
O=C(NCC1CC1)NN=Cc1cccc(-c2cnc(-c3cccnc3)s2)n1 [Compound 1-18] | at least 75% | at least 75% | at least 75%
FC(F)(F)C(=NNc1ccccc1)c1cccc(-c2cnc(-c3cccnc3)s2)n1 [Compound 3-48] | at least 75% | at least 75% | at least 75%
CCOCCON=Cc1cccc(-c2cnc(-c3cccnc3)s2)n1 [Compound 3-51] | at least 75% | at least 75% | at least 75%
Fc1cc(F)c(F)c(NN=Cc2cccc(-c3cnc(-c4cccnc4)s3)n2)c1F [Compound 3-23] | at least 75% | at least 75% | at least 75%
Clc1nc(-c2cccnc2)sc1-c1cccc(C=NNc2ccccc2)n1 [Compound 3-54] | at least 75% | at least 75% | at least 75%
O=C1CCCCN1N=Cc1cccc(-c2cnc(-c3cccnc3)s2)n1 [Compound 3-58] | at least 75% | at least 75% | at least 75%
ON=Cc1cccc(-c2cnc(-c3cccnc3)s2)n1 [Compound 1-11] | – | at least 75% | at least 75%
CON=Cc1cccc(-c2sc(-c3cncc(F)c3)nc2Cl)n1 [Compound 3-46] | at least 75% | at least 75% | at least 75%
CC(=NNc1cc(F)cc(F)c1)c1cccc(-c2cnc(-c3cccnc3)s2)n1 [Compound 3-40] | – | at least 75% | at least 75%
CCc1ccccc1NN=Cc1cccc(-c2cnc(-c3cccnc3)s2)n1 [Compound 3-22] | – | at least 75% | at least 75%
Clc1cnn(N=Cc2cccc(-c3cnc(-c4cccnc4)s3)n2)c1 [Compound 3-29] | – | – | at least 75%
C(=NNc1ccccn1)c1cccc(-c2cnc(-c3cccnc3)s2)n1 [Compound 3-28] | at least 75% | at least 75% | at least 75%
CC(=O)NN=C(C)c1cccc(-c2cnc(-c3cccnc3)s2)n1 [Compound 3-38] | at least 75% | – | at least 75%

Compound | mortality in comparison with untreated controls [1] | mortality in comparison with untreated controls [2] | mortality in comparison with untreated controls [3]
C(=NNCc1ccccc1)c1ccc(-c2cnc(-c3cccnc3)s2)nc1 [Compound 4-4] | – | at least 75% | at least 75%
Clc1cccc(NN=Cc2cccc(-c3cnc(-c4cccnc4)s3)n2)c1 [Compound 3-21] | – | at least 75% | at least 75%
Clc1cccc(NN=Cc2cccc(-c3cnc(-c4cccnc4)s3)n2)n1 [Compound 3-30] | – | – | at least 75%
CNC(=O)NN=Cc1cccc(-c2cnc(-c3cccnc3)s2)n1 [Compound 1-16] | – | – | at least 75%
FC(F)(F)C(=NNCc1ccccc1)c1cccc(-c2cnc(-c3cccnc3)s2)n1 [Compound 3-49] | – | – | at least 75%
FC(F)(F)c1cc(Cl)c(NN=Cc2cccc(-c3cnc(-c4cccnc4)s3)n2)c(Cl)c1 [Compound 3-32] | – | at least 75% | at least 75%
CC(=NNc1ccc(OC(F)(F)F)cc1)c1cccc(-c2cnc(-c3cccnc3)s2)n1 [Compound 3-37] | at least 75% | at least 75% | at least 75%
N#Cc1ccc(NN=Cc2cccc(-c3cnc(-c4cccnc4)s3)n2)cc1 [Compound 3-16] | – | at least 75% | at least 75%
CN(N=Cc1cccc(-c2cnc(-c3cccnc3)s2)n1)c1ccccc1 [Compound 3-27] | – | at least 75% | at least 75%
CN(C)N=Cc1cccc(-c2sc(-c3cccnc3)nc2C(F)(F)F)n1 [Compound 3-55] | – | at least 75% | –
O=C1CCCN1N=Cc1cccc(-c2cnc(-c3cccnc3)s2)n1 [Compound 3-57] | at least 75% | – | at least 75%
C(=NNc1ccccc1)c1ccc(-c2cnc(-c3cccnc3)s2)nc1 [Compound 4-1] | – | at least 75% | at least 75%
CS(=O)(=O)NN=Cc1cccc(-c2cnc(-c3cccnc3)s2)n1 [Compound 3-59] | at least 75% | – | –
CN(C)N=Cc1cccnc1-c1cnc(-c2cccnc2)s1 [Compound 6-3] | – | – | at least 75%
Clc1ccc(NN=Cc2cccc(-c3cnc(-c4cccnc4)s3)n2)nc1 [Compound 3-31] | at least 75% | – | at least 75%
O=C1CN(N=Cc2cccc(-c3cnc(-c4cccnc4)s3)n2)C(=O)N1 [Compound 3-52] | – | – | at least 75%
CON=Cc1ccnc(-c2cnc(-c3cccnc3)s2)c1 [Compound 5-1] | at least 75% | – | at least 75%
Cc1cc(C)c(NN=Cc2cccc(-c3cnc(-c4cccnc4)s3)n2)c(C)c1 [Compound 3-25] | – | at least 75% | at least 75%
